Results of single-concentration screens

From ChEMBL document CHEMBL3988442, “University of Dundee, Small-Polar-MMV Screening Library” (2021).

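Phenotypic screen: M. tuberculosis growth, glucose 7H9 medium, 3 days; the read-out is not stated. Tested at 50 µM. Direction is inferred from retests: higher values go with more growth inhibition. Size under these conditions: about 69,000 compounds, about 760 of them at 50% or above in at least one test.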

Each number is a percent effect as filed.
The controls that fix the scale are not given in the record; negative values are as filed.
The compounds are a random part of those screened.
Two or more numbers in one place are separate tests of the same structure; such repeats can differ widely.

structure | percent effect
Cn1cnc(-c2nc(C(=O)NCCN3CCOCC3)c3ccccn23)c1 | -1.051
Cc1cccc(-c2nnc(C(C)N3CCn4c(C)nnc4C3)o2)c1 (stereo not given) | 69.39
O=C(c1ccc(Cl)s1)N1CCC2(COc3ncccc3S(=O)(=O)N2)C1 (stereo not given) | 11.31
O=S(=O)(Cc1ccc(F)cc1)NCc1ccco1 | -15.68
CC(C)c1noc(CCCC(=O)NC(C)c2nnc3n2CCC3)n1 (stereo not given) | 3.211 and -0.4077
O=C(C1CCOC1)N1CCC2(CCCNC2)CC1 (stereo not given) | 18.99
CCS(=O)(=O)N(C)C1CCN(C(=O)c2ccc(C)c(C)c2)CC1 | -10.42 and -4.066
CCC(CO)N(Cc1ccccn1)C(=O)c1cccc(C#N)c1 (stereo not given) | -9.326
CN(C)S(=O)(=O)NC1CC(=O)N(c2ccccc2Cl)C1 (stereo not given) | -0.8203 and -16.46
Cc1cnn(CC2CCCN2C(=O)c2cn(C)c3ccccc23)c1 (stereo not given) | -8.762
Cl.OC(CNCc1ccccc1C(F)(F)F)c1ccccc1 (stereo not given) | -22.64
CC(=O)N1CCCC1c1cccc(C)c1C (stereo not given) | -3.771
CCCn1ncc2c(C(=O)Nc3n[nH]c(SC)n3)cc(C3CC3)nc21 | 15.33
O=C(c1ccc2c(c1)CCC2)N1CC[C@H](O)[C@]2(CCCO2)C1 | -1.459
CN(CC1CCCCC1)C(=O)c1cn(C)nc1-c1cccnc1 | 11.23
O=C(NCc1ccncc1)c1nc2c(o1)CN(C(=O)c1cccnc1)C2.O=C(O)C(F)(F)F.O=C(O)C(F)(F)F | -1.582 and -14.45
Cc1cccc(N(CC(=O)N2CCCCC2)C(=O)C2CCCO2)c1 (stereo not given) | 11.91
Cc1noc(C2CCCN(CC(=O)N3CCNC(=O)C3)C2)n1 (stereo not given) | -36.91
CC1(C)CN(CC(F)(F)F)CCN1CC(N)=O | -22.59
O=C(NC1CCN(c2ncccn2)CC1)c1sccc1C1CC1 | 2.093
COc1ccc(C(C)NCc2cccs2)cc1Cn1cccn1 (stereo not given) | -2.995
CCN1CC2(CCN(CCOCCO)CC2)CC(c2ccccc2)C1=O (stereo not given) | -3.284
CCN(CC)C(=O)Cn1ccc2cc(NC(=O)COC)ccc21 | 1.315
CC(C)N(C)C(=O)c1coc(CN2CCN(c3ccccc3F)CC2)n1 | -6.924
Cc1ccc(C)c(S(=O)(=O)CCN2CCCC2Cn2cccn2)c1 (stereo not given) | 3.678
Cc1nc(C)n(CC2CCCCN2Cc2nnc(C3CC3)o2)n1 (stereo not given) | 2.712
OCc1ccc(CN2CCC(n3cc(C4CCCCC4)nn3)CC2)o1 | -3.646
Cc1nn(C)c2nc(N(C)CCN(C)C3CCCC3)sc12 | 10.13
CC(c1cccc(O)c1)N(C)S(N)(=O)=O (stereo not given) | -48.36
O=C(CCC(=O)c1ccccc1)NC1(C(=O)NCC2CC2)CCCC1 | -10.23
NC(=O)COc1cccc(C(=O)N2CCCC(n3cccn3)C2)c1 (stereo not given) | -16.04
O=S(=O)(N1CCCCCC1)N1CCc2sccc2C1 | 0.8025
COc1ccc2c(c1)OCC(C(=O)NCc1ncc3c(n1)CCC3)C2 (stereo not given) | -18.57
OC1CCCN(Cc2cn(CC3CCN(C4CCSCC4)CC3)nn2)C1 (stereo not given) | 4.68 and -5.291
CCS(=O)(=O)CCNc1nc(C2CCCC2)nc2c1cnn2C | 5.046
Cc1ccc(C2(CN3CCN(Cc4cncn4C)CC3)CC2)cc1.Cl | -38.21
O=C1NCCCCC1Sc1nnc(C2CC2)n1C1CC1 (stereo not given) | 2.32 and 7.197
CC(C)CN1CCCC1c1ccc(C(=O)Nc2cc[nH]n2)s1 (stereo not given) | 20.09
COCc1cc(N2CCc3onc(-c4cccc(OC)c4)c3C2)ncn1 | -7.941
CCC1=NN2C(=N)/C(=C/c3cccc(Cl)c3)C(=O)N=C2S1 | 22.92
O=C(O)C(F)(F)F.O=C(O)C(F)(F)F.[H][C@@]12COC[C@H](C(=O)NCc3ccccn3)[C@]1([H])CN(CC1CC1)C2 | -31.88
Fc1cccnc1N1CCOCC2(CCCNC2)C1 (stereo not given) | -29.69
c1cc(-c2c[nH]nc2C2CCCCC2)nc(N2CCCCCC2)n1 | 31.02
CCc1noc(C(C)N2CCN(Cc3noc(C4CC4)n3)CC2)n1 (stereo not given) | 25.85 and -1.966
COc1ccc(C(=O)N2CC[C@H](CO)[C@H](O)C2)c(C)c1 | 2.43
[H][C@@]12CN(C(=O)NC(C)C)C[C@]1(C(=O)NC)CCCN2c1ncccn1 | -5.321
Cc1cccc(CN2CCCCC23CCNC3)n1.O=C(O)C(F)(F)F.O=C(O)C(F)(F)F (stereo not given) | -32.13
Cc1ccc(C(O)CNC(=O)NCc2csc(C)n2)cc1 (stereo not given) | -74.47 and -1.33
c1cc(C2CCN(c3cncnc3)CC2)ccn1 | -20.14
O=C(CNC(=O)c1c[nH]c2ccccc12)NCCCn1ccnc1 | -7.332 and 4.353
COCCn1ccc2c(C(=O)O)cccc21 | 20.47
CCOCC(=O)N1CCC2(CC1)CC(c1ccccc1)CO2 (stereo not given) | -14.82
Cc1oc(CNC(=O)Cc2ccccc2Cl)cc1C(=O)O | 7.767 and -18.34
Cc1cc(C)c(CNC(=O)NCC2CCCOC2)c(=O)[nH]1 (stereo not given) | 13.36
O=C1CCCc2occ(C(=O)N3CCCC(O)(CO)C3)c21 (stereo not given) | -34.01
O=C(NC1CCN(C2CC2)CC1)c1[nH]nc(C2CC2)c1Cl | 19.4
CCn1ccnc1CNCC1CCCN1c1cccnn1 (stereo not given) | 20.02
CNC(=O)CSC(C)c1ccc(Br)cc1 (stereo not given) | -19.82 and -1.372
O=C(NCc1ccccc1CN1CCOCC1)Nc1nncs1 | -24.03
Cc1c(C(=O)NCC2CCCO2)nnn1-c1cccc2c1CCN(C)C2 (stereo not given) | -15.11 and -6.947
CC1c2ncc(Cn3cccn3)n2CCN1Cc1ccc(F)cc1.O=C(O)C(F)(F)F (stereo not given) | 17.04
CCN(C)C(=O)CN1CCC(c2cc(N3CCOCC3)nc(C)n2)CC1 | 19.93
O=C(NCCCN1CCOCC1)c1nc(-c2ccc3cc[nH]c3c2)no1 | -15.8
CCC(O)CN1CCN(C(=O)c2ccnc(N(C)C)c2)CC1 (stereo not given) | -23.94
Cc1cc(C(=O)N2CCC3(CC2)COCCN(c2cccnc2)C3)[nH]n1.O=C(O)C(F)(F)F | -53.98 and -8.085
CC(=O)N1N=C(c2ccccc2)OC1C(=O)N(C)Cc1ccccc1 (stereo not given) | 0.1924
Cc1nn(C)c(N(C)C)c1CNCc1ccc(OCCN(C)C)cc1 | -36.64
Cc1ccsc1[C@@H]1CCN(C(=O)Cc2ccc(O)cc2)C[C@H]1O | 2.281 and -2.153
Cc1noc(-c2ccnc(N3CCC(CN4CCOCC4)CC3)c2)n1 | -24.93
Cc1cc(O)c(OCC(=O)Nc2nc3c(s2)CCCC3)cn1 | 8.85
Cc1cc(C)c2c(c1)C(NC(=O)CSCC(N)=O)CCO2 (stereo not given) | -7.283
CCc1nc(C(=O)N2CCN(Cc3ccc(Cl)cc3)CC2)c[nH]1 | 3.891
CCS(=O)(=O)c1ccc2c(c1)OCCO2 | -9.839
COc1cccc(C(=O)NCC(O)c2cccs2)c1 (stereo not given) | 2.619 and 25.96
CC(C(=O)N(C)Cc1noc(C2CCC2)n1)N1CCc2ccccc2C1 (stereo not given) | -29.75
COc1ccc(CN2CCCN(c3cc(C(N)=O)ccn3)CC2)cc1 | -5.248 and -6.26
O=C(NS(=O)(=O)c1ccc2c(c1)CCC2)C1COCCO1 (stereo not given) | -27.89
COCc1ncn2c1CN(C(=O)Nc1ccccc1)CC2 | -14.35
[H][C@]12CN(c3cnn(C)c3)C(=O)[C@@]1([H])CN(S(=O)(=O)C1CC1)C2 | -16.19 and -1.495
CN(C)C(=O)CC1CC2(CCN(Cc3ccco3)CC2)c2ccccc21.O=C(O)C(F)(F)F (stereo not given) | -12.33
CO[C@H]1CN(C(=O)OC(C)(C)C)CC1NCc1cc[nH]c1 (stereo not given in full) | -7.995
O=C(c1ccc(-n2cncn2)cc1)N1CCN(c2cnccn2)CC1 | -4.724 and 3.657
COc1cccc(-n2nnc(C(=O)N3CCN(C)CC3C)c2C)c1 (stereo not given) | -50.36
CC(C)c1cccc(CSc2nnc(Cn3cncn3)o2)n1 | 28.07
O=C(C1COCCO1)N1CCN(CC(F)(F)F)c2ccccc21 (stereo not given) | -5.984
Fc1cnccc1CN1CCCC2(CCN(c3ncccn3)CC2)C1.O=C(O)C(F)(F)F | 5.145 and -24.16
CN(C)C(=O)CCC[S+]([O-])Cc1ccc(Cl)c(Cl)c1 (stereo not given) | 18.56
COc1ccc(Nc2c[nH]c(=O)[nH]c2=O)cc1 | -20.48 and -1.801
CC(Cn1ccnc1)NC(=O)NCCc1ccccn1 (stereo not given) | 4.922
CS(=O)(=O)NC1CCN(c2cccc(F)c2C#N)CC1 | 2.51
COc1cc(CNC(=O)COC2CCCCC2)ccc1O | -0.05526

For reference, 6 entries once more:

For O=C(NS(=O)(=O)c1ccc2c(c1)CCC2)C1COCCO1 (stereo not given) the result was -27.89%.
For CS(=O)(=O)NC1CCN(c2cccc(F)c2C#N)CC1 the result was 2.51%.
For O=C(c1ccc(-n2cncn2)cc1)N1CCN(c2cnccn2)CC1 the result was -4.724% and 3.657%.
For CCN1CC2(CCN(CCOCCO)CC2)CC(c2ccccc2)C1=O (stereo not given) the result was -3.284%.
For Cc1cc(C(=O)N2CCC3(CC2)COCCN(c2cccnc2)C3)[nH]n1.O=C(O)C(F)(F)F the result was -53.98% and -8.085%.
For CCC1=NN2C(=N)/C(=C/c3cccc(Cl)c3)C(=O)N=C2S1 the result was 22.92%.